The assay is described as follows: qHTS Assay to Find Inhibitors of Chronic Active B-Cell Receptor Signaling. The settings on record: ABC-DLBCL IkBa-CBG/CBR reporter, luminescence ratio (green luciferase fused to IkBa over red control in TMD8 lymphoma cells), 4 h. The method in brief:
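Doxycycline induced both beetle luciferases in TMD8 lymphoma cells; IKK-driven degradation limits the IkappaBalpha-fused green signal, while red luminescence normalises for cell number and nonspecific effects. Compounds tested up to 46 uM, 4 hrs.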

[1] abbreviates: measured here: CBR red luminescence, cell number.

What is called AC50 is the midpoint of the concentration-response curve, whichever way the signal moves.

Structures are written as SMILES. The list shows a part of the results. Shown are side measurements of this screen, not its main read-out; they come without a call. Compounds called inactive in the main read-out are mostly missing here. Potencies come from curve fits of mixed quality, noted in brackets.

In the case of `NC(=O)CC(NC(=O)Cc1cccc2ccccc12)c1ccc(NCC2CC2)c([N+](=O)[O-])c1` (configuration not stated), under setting [1], the AC50 was 35.5 µM [rising, single point]. On the same count and under the same terms, next, `O=C(Cc1cccs1)N=Nc1c(O)[nH]c2ccccc12`: 12.6 µM [falling, partial curve, poor fit]; `CCOc1cccc(CC(=O)NCc2ccc3c(c2)CCN3C(C)=O)c1OCC`: 0.398 µM [rising, full curve, poor fit].

As for `CN(CCC#N)C(=O)COC(=O)c1ccccc1C(=O)c1ccc(Cl)c([N+](=O)[O-])c1`, the AC50 under setting [1] is 5.01 µM [falling, full curve].

For `CS(=O)(=O)c1ccc2nc(NC(=O)CCN3C(=O)c4ccccc4C3=O)sc2c1`, under setting [1], the concentration at half-maximal activity (AC50) is 22.4 µM [rising, partial curve, poor fit]. Same read-out and setting: next, `O=C1CS/C(=N/N=C2CCCC2)N1`: 0.501 µM [rising, full curve, poor fit]; `Fc1ccc(Cn2nnc3ccccc32)cc1`: 5.62 µM [falling, single point]. Same read-out and setting: the figure for `CCCN1CCC(=NNc2ccc(C(=O)O)cc2)CC1` is 0.316 µM [falling, full curve]; for `COc1cccc(OC(=O)CSc2nnc(-c3ccccc3Br)o2)c1` it is 29.1 µM [falling, single point]. On the same count and under the same terms, next, `CC1=C(C(=O)Nc2ccccc2)C(c2ccco2)C(C#N)=C(SCC(=O)Nc2cccc(C)c2C)N1` (configuration not stated): 4.11 µM [falling, full curve, poor fit]; `O=C(NCc1cc([N+](=O)[O-])ccc1O)c1cccnc1Sc1ccc(Cl)cc1`: 0.316 µM [rising, full curve, poor fit]. Turning to `O=C(NCCS(=O)(=O)NCCc1ccccc1)c1ccc2c(c1)OCO2`, the AC50 under setting [1] was 32.6 µM [falling, single point]. On the same count and under the same terms, the figure for `COc1ccccc1CCn1c(N)c(C#N)c2nc3ccccc3nc21` is 10.3 µM [falling, partial curve]. On to `CC1(C)CC(=O)C(C=Nc2ccc3[nH]ncc3c2)=C(O)C1`, for which the AC50 was 8.2 µM [falling, partial curve] under setting [1] and 23.1 µM [falling, partial curve, poor fit] (measured here: IkBa-CBG green luminescence).

Turning to `O=C(NCCCn1ccnc1)c1cccc(S(=O)(=O)Nc2ccccc2F)c1`, the AC50 under setting [1] was 3.55 µM [rising, single point].

As for `C=CCOC(=O)C(C#N)c1nc2ccccc2nc1N1CCN(Cc2ccc3c(c2)OCO3)CC1` (configuration not stated), the AC50 under setting [1] was 11.6 µM [rising, partial curve, poor fit]. As to `CCc1ccc(Sc2cc(C(=O)O)c3ccccc3n2)cc1`, the AC50 under setting [1] is 1.58 µM [rising, partial curve, poor fit]. Take `CNC(C)C#Cc1c(-c2cc(OC)c(OC)c(OC)c2)noc1C` (configuration not stated): the AC50 under setting [1] is 7.94 µM [falling, partial curve, poor fit]. Same read-out and setting: next, `Cc1ccsc1C(=O)NNC(=O)C1CC=CCC1C(=O)O` (configuration not stated): 5.8 µM [falling, partial curve]. On the same count and under the same terms, the figure for `CCN1CCC2(CC1)Oc1c(OC)cccc1C1CC(c3cccnc3)=NN12` (configuration not stated) is 15.8 µM [rising, single point]. On the same count and under the same terms, next, `Cc1occc1C(=O)NNC(=O)COc1ccc(Br)cc1Br`: 18.4 µM [rising, partial curve]; `COc1cc(C(=O)NCCCCCCNC(=O)c2cc(OC)c(OC)c(OC)c2)cc(OC)c1OC`: 0.562 µM [rising, full curve, poor fit]. In the case of `CCCCc1c(O)nc2sc3cc(OC)ccc3n2c1=O`, the AC50 under setting [1] is 0.517 µM [falling, full curve, poor fit]. Regarding `CCc1nnc(NC(=O)COc2ccc([N+](=O)[O-])cc2)s1`, under setting [1], the AC50 is 12.6 µM [rising, partial curve].

As to `O=[N+]([O-])c1ccc(-c2nc(Nc3cccc(O)c3)c3ccccc3n2)cc1`, the AC50 under setting [1] is 10 µM [falling, partial curve, poor fit]. Same read-out and setting: the figure for `Cc1ccc(C2=Nc3c(ccc4ccccc34)C(c3ccncc3)=NN2)cc1` is 35.5 µM [falling, single point]; for `CCC(=O)Nc1cccc(-c2nc3ccccc3c(=O)o2)c1` it is 10 µM [falling, partial curve]; for `O=C(Nc1ccccc1)C1=C[C@@H](c2csc3ccccc23)C[C@@H](OCc2ccc(CO)cc2)O1` it is 15.8 µM [falling, single point]. Regarding `COC(=O)c1cc(NC(=O)COC(=O)C2CCC2)cc(C(=O)OC)c1`, the AC50 under setting [1] was 3.66 µM [falling, partial curve].

On to `COc1ccc(CCNC(=S)NC(=O)c2ccccc2)cc1OC`, for which the AC50 under setting [1] is 35.5 µM [falling, single point]. Still for that read-out and setting: the figure for `CCOC(=O)c1cnc(-c2ccccc2O)nc1Cl` is 2.51 µM [falling, full curve, poor fit]; for `CCc1ccc2c(c1)/C(=C/C(=O)c1cccs1)C(=O)N2` it is 25.1 µM [falling, partial curve, poor fit]. On the same count and under the same terms, next, `O=C(NNC(=O)C1CC=CCC1)c1ccccc1Cl` (configuration not stated): 15.8 µM [falling, single point]; `Cc1onc(-c2c(F)cccc2Cl)c1C(=O)ONC(=O)c1ccco1`: 2.24 µM [rising, full curve]; `Cc1ccc(NC(=S)N/N=C/c2ccc(Cl)c([N+](=O)[O-])c2)cc1`: 20.6 µM [falling, partial curve, poor fit]. Still for that read-out and setting: the figure for `Cn1ncc(Cl)c1C(=O)NCc1ccco1` is 20 µM [falling, single point]; for `O=C(CCCc1nc2ccccc2s1)Nc1ccccc1` it is 10 µM [rising, partial curve, poor fit]; for `CSc1ccccc1NC(=O)CN(c1cc(C)cc(C)c1)S(C)(=O)=O` it is 9.2 µM [falling, partial curve, poor fit].

Regarding `C/C(=N\NC(=O)c1ccn(C)n1)c1ccc(NC(=O)C2CCCC2)cc1`, under setting [1], the AC50 was 18.4 µM [falling, partial curve]. As for `Cc1csc(SCC(=O)Nc2cccc3nsnc23)n1`, the AC50 under setting [1] is 13 µM [falling, partial curve].

On to `Cc1nnsc1C(=O)N(Cc1ccccc1)C(C)C`, for which the AC50 under setting [1] was 15.8 µM [rising, partial curve, poor fit].

(Values after PubChem BioAssay AID493014 (National Center for Advancing Translational Sciences (NCATS), 2011).)
